In PMC8482512:
These are yes or no findings as the source states them, for the method shown. Binding seen in cells or lysates may run through a third protein. A result given as binding can be weak or reduced; the word gives no strength.

The chains behind the UniProt entries cited, without tags or fusion partners. Where a name states a change or a piece, a line headed by the entry shows the natural chain unless it says otherwise.
UniProt Q04689: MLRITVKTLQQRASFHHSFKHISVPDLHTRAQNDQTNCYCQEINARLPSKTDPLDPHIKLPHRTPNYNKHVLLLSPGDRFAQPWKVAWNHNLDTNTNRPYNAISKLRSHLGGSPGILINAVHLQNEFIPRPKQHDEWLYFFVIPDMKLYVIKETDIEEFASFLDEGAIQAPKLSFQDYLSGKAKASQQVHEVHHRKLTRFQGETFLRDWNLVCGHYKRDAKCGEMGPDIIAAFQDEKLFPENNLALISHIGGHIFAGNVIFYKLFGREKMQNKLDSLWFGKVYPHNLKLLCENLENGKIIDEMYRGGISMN

B1: Mia40 (protein, UniProt P36046 32-403)
chain: MASSPQFGRNSNQEKTAGFIMGILSMAGALYFIAPNRKPLFASRKVESDKTAEEELSSGGEQSPENEDDNNSKSDENGDDNDSKNDETEAGPQLGGDKIGASKVAEDGELVVLAEEDNKSSEDKDTDESKVSTKDDEQSNEDNATANNQKDENISSENSEENTSDKTLDNNAGSSEKKDPEHSDDEKSQQGQSDDKTTTEDNNGEEESSKKTVSDSENSAKQSESSDEEKEELRKQEEKQMGPTEEEVQHEGAYNPDTGEINWDCPCLGGMAHGPCGEEFKSAFSCFVYSEAEPKGIDCVEKFQHMQDCFRKYPEHYAEQLKETSDDEEPQDKVKVNTIESAPNVSSAKENAAKKAEQSDVKKEPLNEESKP
B2: Osm1 (enzyme, UniProt P21375 33-501)
chain: MKQPVVVIGSGLAGLTTSNRLISKYRIPVVLLDKAASIGGNSIKASSGINGAHTDTQQNLKVMDTPELFLKDTLHSAKGRGVPSLMDKLTKESKSAIRWLQTEFDLKLDLLAQLGGHSVPRTHRSSGKLPPGFEIVQALSKKLKDISSKDSNLVQIMLNSEVVDIELDNQGHVTGVVYMDENGNRKIMKSHHVVFCSGGFGYSKEMLKEYSPNLIHLPTTNGKQTTGDGQKILSKLGAELIDMDQVQVHPTGFIDPNDRENNWKFLAAEALRGLGGILLHPTTGRRFTNELSTRDTVTMEIQSKCPKNDNRALLVMSDKVYENYTNNINFYMSKNLIKKVSINDLIRQYDLQTTASELVTELKSYSDVNTKDTFDRPLIINAFDKDISTESTVYVGEVTPVVHFTMGGVKINEKSQVIKKNSESVLSNGIFAAGEVSGGVHGANRLGGSSLLECVVFGKTAADNIAKLY
B3: Erv1 (enzyme, UniProt P27882 1-189)
chain: MKAIDKMTDNPPQEGLSGRKIIYDEDGKPCRSCNTLLDFQYVTGKISNGLKNLSSNGKLAGTGALTGEASELMPGSRTYRKVDPPDVEQLGRSSWTLLHSVAASYPAQPTDQQKGEMKQFLNIFSHIYPCNWCAKDFEKYIRENAPQVESREELGRWMCEAHNKVNKKLRKPKFDCNFWEKRWKDGWDE

Key:
[1] = target: Aim32 with a C-terminal FLAG tag (Aim32-FLAG) (S. cerevisiae) (UniProt Q04689); test: co-IP; mitochondrial lysate of Δaim32 [pAIM32-FLAG], ANTI-FLAG M2 affinity gel (FLAG-resin), immunoblot with the indicated antibodies
[2] = target: Aim32 with the HisPC (CNAP) tag on the C terminus (Aim32-HisPC) (S. cerevisiae) (UniProt Q04689); test: pull-down; tandem affinity purification (CNAP) of Aim32-HisPC: lysate on Ni2+-agarose, eluted with 300 mM imidazole, then anti-protein C resin; immunoblot

binding [1] | binding [2] | Binder
binds | no binding | B1
 | binds | B2
 | no binding | B3
